# Data: the supplement of paper PMC10849652
# Protein sequences, listed by entry. Tags and fused reporters are not part of them. Lines headed by an entry give the natural chain unless they say otherwise; changes in a name come on top.
# UniProt P12980: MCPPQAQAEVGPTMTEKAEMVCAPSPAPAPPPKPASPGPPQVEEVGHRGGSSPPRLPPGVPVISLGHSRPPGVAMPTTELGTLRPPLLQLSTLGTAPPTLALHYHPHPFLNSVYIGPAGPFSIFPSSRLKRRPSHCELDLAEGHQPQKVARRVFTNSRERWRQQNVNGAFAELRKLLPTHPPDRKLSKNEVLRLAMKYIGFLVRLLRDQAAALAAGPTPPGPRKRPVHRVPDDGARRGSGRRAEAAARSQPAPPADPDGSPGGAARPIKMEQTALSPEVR
# UniProt Q9BSK0: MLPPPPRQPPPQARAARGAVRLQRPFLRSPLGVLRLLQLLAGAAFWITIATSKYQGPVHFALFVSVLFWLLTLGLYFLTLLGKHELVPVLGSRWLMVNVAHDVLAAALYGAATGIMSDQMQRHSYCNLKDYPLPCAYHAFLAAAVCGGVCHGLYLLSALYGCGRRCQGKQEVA
# UniProt Q8WV07: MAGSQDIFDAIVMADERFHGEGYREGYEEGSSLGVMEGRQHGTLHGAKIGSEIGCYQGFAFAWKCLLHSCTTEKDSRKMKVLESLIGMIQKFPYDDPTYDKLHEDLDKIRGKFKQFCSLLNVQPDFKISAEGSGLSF
# UniProt Q14766: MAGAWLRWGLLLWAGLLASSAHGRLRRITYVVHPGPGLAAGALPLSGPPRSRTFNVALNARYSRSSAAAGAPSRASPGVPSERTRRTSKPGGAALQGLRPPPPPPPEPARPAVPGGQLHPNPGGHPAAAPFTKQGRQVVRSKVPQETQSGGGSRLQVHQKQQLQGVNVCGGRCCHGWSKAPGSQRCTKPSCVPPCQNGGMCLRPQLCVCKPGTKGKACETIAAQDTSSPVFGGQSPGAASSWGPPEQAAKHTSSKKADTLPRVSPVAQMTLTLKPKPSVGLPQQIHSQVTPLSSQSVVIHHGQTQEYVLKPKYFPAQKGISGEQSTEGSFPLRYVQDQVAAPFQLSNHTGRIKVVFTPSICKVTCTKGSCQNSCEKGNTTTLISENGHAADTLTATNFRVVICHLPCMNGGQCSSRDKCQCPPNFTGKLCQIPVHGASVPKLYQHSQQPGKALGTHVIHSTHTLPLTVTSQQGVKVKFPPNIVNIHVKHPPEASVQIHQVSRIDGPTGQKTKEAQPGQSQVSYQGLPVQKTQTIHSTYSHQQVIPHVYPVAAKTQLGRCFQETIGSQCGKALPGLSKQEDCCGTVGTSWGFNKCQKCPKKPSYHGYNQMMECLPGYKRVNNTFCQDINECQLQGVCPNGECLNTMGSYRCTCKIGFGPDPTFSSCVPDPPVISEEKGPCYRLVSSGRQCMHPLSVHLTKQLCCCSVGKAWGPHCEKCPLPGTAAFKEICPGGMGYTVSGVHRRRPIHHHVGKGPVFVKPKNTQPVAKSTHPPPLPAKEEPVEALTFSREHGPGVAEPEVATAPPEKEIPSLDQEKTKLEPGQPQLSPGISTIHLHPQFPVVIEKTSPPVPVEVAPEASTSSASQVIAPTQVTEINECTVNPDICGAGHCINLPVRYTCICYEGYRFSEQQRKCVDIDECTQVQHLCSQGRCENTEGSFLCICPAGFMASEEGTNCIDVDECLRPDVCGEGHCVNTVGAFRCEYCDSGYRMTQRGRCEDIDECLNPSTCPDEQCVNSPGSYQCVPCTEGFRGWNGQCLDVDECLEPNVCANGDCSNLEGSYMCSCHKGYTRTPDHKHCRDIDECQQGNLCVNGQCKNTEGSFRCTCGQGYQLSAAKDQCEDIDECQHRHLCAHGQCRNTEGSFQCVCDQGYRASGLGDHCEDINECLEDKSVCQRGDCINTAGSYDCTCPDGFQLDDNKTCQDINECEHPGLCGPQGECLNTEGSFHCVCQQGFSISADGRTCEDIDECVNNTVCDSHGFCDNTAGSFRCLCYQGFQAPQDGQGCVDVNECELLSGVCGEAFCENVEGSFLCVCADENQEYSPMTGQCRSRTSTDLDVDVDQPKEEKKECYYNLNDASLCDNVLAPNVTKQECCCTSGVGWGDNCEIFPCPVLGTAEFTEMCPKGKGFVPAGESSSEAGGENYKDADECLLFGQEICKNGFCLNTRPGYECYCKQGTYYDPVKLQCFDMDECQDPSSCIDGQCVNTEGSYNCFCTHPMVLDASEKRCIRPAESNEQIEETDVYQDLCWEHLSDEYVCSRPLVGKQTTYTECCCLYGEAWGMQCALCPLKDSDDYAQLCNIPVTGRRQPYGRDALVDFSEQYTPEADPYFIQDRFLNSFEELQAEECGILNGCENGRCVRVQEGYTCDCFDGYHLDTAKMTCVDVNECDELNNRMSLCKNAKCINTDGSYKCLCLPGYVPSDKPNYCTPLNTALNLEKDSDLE
# UniProt Q8IVH8: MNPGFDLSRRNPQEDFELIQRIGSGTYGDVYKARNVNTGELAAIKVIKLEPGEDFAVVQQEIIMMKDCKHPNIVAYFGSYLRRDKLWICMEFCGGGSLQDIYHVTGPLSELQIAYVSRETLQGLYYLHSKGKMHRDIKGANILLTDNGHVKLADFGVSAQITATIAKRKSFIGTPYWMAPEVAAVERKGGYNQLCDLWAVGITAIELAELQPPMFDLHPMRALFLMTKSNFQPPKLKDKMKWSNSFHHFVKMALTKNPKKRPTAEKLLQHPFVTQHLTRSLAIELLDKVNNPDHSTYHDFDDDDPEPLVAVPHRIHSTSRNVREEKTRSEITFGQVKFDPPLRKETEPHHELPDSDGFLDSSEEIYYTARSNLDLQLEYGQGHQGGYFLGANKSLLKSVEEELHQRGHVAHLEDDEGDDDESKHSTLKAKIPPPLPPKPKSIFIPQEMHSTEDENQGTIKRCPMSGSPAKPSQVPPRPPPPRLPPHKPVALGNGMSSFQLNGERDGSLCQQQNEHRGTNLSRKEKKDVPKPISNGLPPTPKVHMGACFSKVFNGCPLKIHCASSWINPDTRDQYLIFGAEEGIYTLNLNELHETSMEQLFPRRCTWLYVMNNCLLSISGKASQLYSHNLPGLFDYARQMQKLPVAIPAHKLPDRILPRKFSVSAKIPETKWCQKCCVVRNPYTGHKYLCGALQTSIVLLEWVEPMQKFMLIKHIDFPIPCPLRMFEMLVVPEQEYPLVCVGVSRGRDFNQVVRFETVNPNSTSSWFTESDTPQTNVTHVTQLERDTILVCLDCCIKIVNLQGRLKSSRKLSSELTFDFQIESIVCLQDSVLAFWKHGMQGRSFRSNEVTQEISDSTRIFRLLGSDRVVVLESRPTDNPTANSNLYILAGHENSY
# UniProt Q9Y2U5: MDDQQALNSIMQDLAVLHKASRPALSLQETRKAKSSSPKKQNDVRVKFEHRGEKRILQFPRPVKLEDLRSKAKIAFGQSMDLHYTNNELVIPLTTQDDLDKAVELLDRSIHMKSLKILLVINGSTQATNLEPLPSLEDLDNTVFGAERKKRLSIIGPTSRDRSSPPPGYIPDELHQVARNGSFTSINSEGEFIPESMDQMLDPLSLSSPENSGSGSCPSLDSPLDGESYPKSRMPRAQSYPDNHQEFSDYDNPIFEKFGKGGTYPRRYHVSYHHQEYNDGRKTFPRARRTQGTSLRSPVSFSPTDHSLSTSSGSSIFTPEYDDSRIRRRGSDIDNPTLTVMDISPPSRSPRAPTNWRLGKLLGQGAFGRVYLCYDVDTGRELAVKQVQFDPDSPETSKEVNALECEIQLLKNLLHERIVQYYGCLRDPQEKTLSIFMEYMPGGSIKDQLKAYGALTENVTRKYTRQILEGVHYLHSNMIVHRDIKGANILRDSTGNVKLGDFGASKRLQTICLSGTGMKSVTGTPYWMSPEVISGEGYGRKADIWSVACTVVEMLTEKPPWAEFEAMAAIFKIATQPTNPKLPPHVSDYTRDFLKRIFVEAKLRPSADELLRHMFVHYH
# UniProt O60307: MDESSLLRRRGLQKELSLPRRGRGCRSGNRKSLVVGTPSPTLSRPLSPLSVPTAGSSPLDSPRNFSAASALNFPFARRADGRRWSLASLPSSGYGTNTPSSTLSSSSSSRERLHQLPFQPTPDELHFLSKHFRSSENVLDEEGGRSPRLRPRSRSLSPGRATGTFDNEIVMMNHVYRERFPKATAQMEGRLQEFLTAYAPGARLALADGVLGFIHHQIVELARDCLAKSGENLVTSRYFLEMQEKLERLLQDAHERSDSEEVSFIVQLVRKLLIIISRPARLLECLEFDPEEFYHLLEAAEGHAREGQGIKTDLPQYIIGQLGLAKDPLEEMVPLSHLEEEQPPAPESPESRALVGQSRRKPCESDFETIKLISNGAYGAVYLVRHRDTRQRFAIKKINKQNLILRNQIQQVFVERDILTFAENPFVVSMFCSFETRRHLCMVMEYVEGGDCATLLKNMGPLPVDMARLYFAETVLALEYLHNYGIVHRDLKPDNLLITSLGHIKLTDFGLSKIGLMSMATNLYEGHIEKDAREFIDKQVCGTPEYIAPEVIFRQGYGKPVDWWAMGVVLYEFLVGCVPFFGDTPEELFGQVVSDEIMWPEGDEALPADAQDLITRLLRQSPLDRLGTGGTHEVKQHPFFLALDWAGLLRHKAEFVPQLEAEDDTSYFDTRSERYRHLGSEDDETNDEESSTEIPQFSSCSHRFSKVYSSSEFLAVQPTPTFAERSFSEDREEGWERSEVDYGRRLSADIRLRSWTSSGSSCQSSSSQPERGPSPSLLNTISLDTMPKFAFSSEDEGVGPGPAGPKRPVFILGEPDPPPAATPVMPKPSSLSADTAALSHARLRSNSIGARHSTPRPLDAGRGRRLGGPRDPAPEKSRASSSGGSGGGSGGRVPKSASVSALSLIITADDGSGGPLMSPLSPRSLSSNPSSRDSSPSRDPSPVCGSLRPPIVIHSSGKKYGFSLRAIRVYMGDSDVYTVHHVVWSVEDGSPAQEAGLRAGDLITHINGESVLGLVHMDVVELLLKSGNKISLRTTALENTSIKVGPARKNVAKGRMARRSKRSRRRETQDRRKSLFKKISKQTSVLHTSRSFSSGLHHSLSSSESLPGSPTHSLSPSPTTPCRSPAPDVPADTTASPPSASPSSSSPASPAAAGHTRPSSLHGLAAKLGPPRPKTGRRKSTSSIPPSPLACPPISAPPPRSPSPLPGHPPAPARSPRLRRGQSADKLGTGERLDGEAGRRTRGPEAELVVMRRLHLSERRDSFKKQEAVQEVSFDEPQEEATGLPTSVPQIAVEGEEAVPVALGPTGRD
# UniProt P43358: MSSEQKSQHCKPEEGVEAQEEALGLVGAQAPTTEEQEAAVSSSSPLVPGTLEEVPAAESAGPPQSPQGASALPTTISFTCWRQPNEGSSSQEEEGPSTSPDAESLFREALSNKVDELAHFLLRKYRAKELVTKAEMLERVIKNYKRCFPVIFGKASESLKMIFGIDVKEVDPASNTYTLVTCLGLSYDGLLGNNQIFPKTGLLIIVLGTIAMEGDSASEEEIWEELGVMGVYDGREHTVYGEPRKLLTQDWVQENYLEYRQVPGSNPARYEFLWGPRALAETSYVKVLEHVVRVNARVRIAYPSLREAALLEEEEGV
# UniProt P07948: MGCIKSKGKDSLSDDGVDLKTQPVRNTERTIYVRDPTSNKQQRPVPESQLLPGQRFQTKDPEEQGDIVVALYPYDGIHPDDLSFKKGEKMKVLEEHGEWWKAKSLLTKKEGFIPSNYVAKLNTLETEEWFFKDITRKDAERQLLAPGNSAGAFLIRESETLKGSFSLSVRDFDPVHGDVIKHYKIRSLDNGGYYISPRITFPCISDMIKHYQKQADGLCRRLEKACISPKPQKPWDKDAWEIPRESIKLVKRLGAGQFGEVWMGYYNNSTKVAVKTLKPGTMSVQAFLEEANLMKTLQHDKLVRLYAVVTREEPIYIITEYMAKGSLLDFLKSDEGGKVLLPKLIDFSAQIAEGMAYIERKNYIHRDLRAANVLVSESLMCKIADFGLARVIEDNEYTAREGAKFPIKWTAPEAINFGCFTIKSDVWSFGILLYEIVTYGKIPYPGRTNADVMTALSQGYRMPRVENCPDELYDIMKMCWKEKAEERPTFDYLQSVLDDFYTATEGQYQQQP
# UniProt Q99759: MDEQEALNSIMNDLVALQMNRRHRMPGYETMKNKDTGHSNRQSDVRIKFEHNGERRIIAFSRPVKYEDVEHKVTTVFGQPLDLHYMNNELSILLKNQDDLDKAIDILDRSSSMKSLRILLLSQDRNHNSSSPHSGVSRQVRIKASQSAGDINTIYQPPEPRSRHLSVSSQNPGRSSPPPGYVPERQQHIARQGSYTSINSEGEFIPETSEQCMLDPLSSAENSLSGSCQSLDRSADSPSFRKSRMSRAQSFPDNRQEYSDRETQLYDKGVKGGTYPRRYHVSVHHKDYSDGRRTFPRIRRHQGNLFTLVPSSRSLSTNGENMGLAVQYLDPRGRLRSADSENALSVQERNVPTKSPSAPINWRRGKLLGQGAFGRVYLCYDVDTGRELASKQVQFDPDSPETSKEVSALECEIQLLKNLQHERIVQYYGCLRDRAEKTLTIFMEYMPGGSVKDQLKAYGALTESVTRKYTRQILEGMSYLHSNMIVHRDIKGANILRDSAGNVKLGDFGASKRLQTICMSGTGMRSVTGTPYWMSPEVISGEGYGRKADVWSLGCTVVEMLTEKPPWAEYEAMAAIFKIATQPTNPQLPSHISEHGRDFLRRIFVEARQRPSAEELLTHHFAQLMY
# This is one part of the list.
# Compound: C=CC(=O)N1CCC[C@@H](n2nc(-c3ccc(Oc4ccccc4)cc3)c3c(N)ncnc32)C1 [ibrutinib]
# Assay: log2 fold change, soluble protein after heating vs DMSO (PISA); higher = thermal stabilisation; K562 lysate, 10 uM; active = over 0.2 and 3.5 SD of the protein, either way, in both replicates (recomputed)
# Outline: (§1)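 Thermal stability, expressed as log-two fold change relative to solvent controls, is given from duplicates. Crude K562 extract in PBS pH 7.4 with 1 mM MgCl2, at 1 mg/mL protein, was treated with 10 μM compound for 30 min and heated in aliquots for 3 min across 48°C-58°C. After pooling, adjustment to 0.5% NP-40 at 4°C and centrifugation at 21,000xg for 90 min, supernatant protein was measured by TMTpro 16plex LC-MS/MS with channel sums equalised.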
row,Target,log2 fold change
1,LYL1 (UniProt P12980),inactive: 0.037
2,"MACF1, A0A0A6YYJ5",inactive: -0.006
3,MAP3K8 (UniProt P41279),inactive: -0.086
4,MARVELD1 (UniProt Q9BSK0),inactive: 0.148
5,LTO1 (UniProt Q8WV07),inactive: 0.189
6,LTBP1 isoform 4 (UniProt Q14766),inactive: -0.08
7,MAP4K3 (UniProt Q8IVH8),inactive: -0.072
8,MAP3K2 (UniProt Q9Y2U5),inactive: -0.103

# Compound: CC(=O)c1cnc2ccc(-c3cc(Cl)c(O)c(Cl)c3)nc2c1N[C@H]1CC[C@H](CN(C)C)CC1
# Assay: as above
# Outline: as §1
row,Target,log2 fold change
1,MAST3 (UniProt O60307),inactive: 0.026
2,MAGEA4 (UniProt P43358),inactive: -0.004
3,"LYPLA1, A0A087X1K9",inactive: -0.02
4,MAGEF1 (UniProt Q9HAY2),inactive: -0.431
5,MAPT isoform 7 (UniProt P10636),inactive: 0.035
6,MAFF (UniProt Q9ULX9),inactive: -0.091
7,MAPK7 (UniProt Q13164),active: 0.388

# Compound: CC(C)(C)Cn1c(N)nc2ccc(-c3[nH]c(C(C)(C)C)nc3-c3ccc(F)cc3)nc21 [ralimetinib]
# Assay: as above
# Outline: as §1
row,Target,log2 fold change
1,MAST3 (UniProt O60307),inactive: -0.036
2,MAPK15 (UniProt Q8TD08),inactive: -0.103
3,MAGEA4 (UniProt P43358),inactive: 0.054
4,MAPKAP1 (UniProt Q9BPZ7),inactive: -0.019
5,LYN isoform 2 (UniProt P07948),inactive: -0.104
6,MAP3K3 isoform 2 (UniProt Q99759),inactive: 0.015
7,"MACF1, A0A0A6YYJ5",inactive: -0.014
8,MAP3K1 (UniProt Q13233),inactive: -0.137
9,"LYPLA1, A0A087X1K9",inactive: 0.074
10,LTO1 (UniProt Q8WV07),inactive: 0.026
11,MAGEF1 (UniProt Q9HAY2),inactive: -0.424
12,MAP4K3 (UniProt Q8IVH8),inactive: -0.077

# Compound: CC(C)(O)CC(=O)NCCn1ccc2ncnc(Nc3ccc(Oc4cccc(C(F)(F)F)c4)c(Cl)c3)c21
# Assay: as above
# Outline: as §1
row,Target,log2 fold change
1,MAST3 (UniProt O60307),inactive: -0.02
2,MAPK15 (UniProt Q8TD08),inactive: -0.188
3,MAGEA4 (UniProt P43358),inactive: -0.03
4,MAPKAP1 (UniProt Q9BPZ7),inactive: 0
5,LYN isoform 2 (UniProt P07948),inactive: 0.106
6,MAP3K3 isoform 2 (UniProt Q99759),inactive: 0.004
7,"MACF1, A0A0A6YYJ5",inactive: -0.041
8,MAP3K1 (UniProt Q13233),inactive: -0.034
9,"LYPLA1, A0A087X1K9",inactive: -0.19
10,LTO1 (UniProt Q8WV07),inactive: -0.006
11,MAGEF1 (UniProt Q9HAY2),inactive: -0.56
12,MAP4K3 (UniProt Q8IVH8),inactive: 0.062

# Compound: CC(C)C1=C2N=C(C=C(N2N=C1)NCC3=CC=CC=C3)NCCCCCCN
# Assay: as above
# Outline: as §1
row,Target,log2 fold change
1,MAST3 (UniProt O60307),inactive: 0.018
2,MAPK15 (UniProt Q8TD08),inactive: 0
3,MAGEA4 (UniProt P43358),inactive: 0.011
4,MAPKAP1 (UniProt Q9BPZ7),inactive: -0.031
5,LYRM1 (UniProt O43325),inactive: -0.015
6,LYN isoform 2 (UniProt P07948),inactive: -0.061
7,LYL1 (UniProt P12980),inactive: 0.106
8,MAP3K3 isoform 2 (UniProt Q99759),inactive: -0.051
9,"MACF1, A0A0A6YYJ5",inactive: 0.033
10,MARVELD1 (UniProt Q9BSK0),inactive: 0.127
11,LTO1 (UniProt Q8WV07),inactive: -0.041
12,MAGEF1 (UniProt Q9HAY2),inactive: 0.242
13,MAGEA6 (UniProt P43360),inactive: -0.119
14,LTBP1 isoform 4 (UniProt Q14766),inactive: -0.116
15,MAFF (UniProt Q9ULX9),inactive: -0.166
16,MAPK7 (UniProt Q13164),inactive: 0.025
17,MAP3K2 (UniProt Q9Y2U5),inactive: -0.047

# Compound: CC1=C(C(CC(=O)N1)C2=CC=C(C=C2)C(F)(F)F)C(=O)NC3=C(C=C4C(=C3)C=NN4)F
# Assay: as above
# Outline: as §1
row,Target,log2 fold change
1,MAPK15 (UniProt Q8TD08),inactive: -0.067
2,MAGEA4 (UniProt P43358),inactive: 0.03
3,MAPKAP1 (UniProt Q9BPZ7),inactive: -0.103
4,MAPK3 (UniProt H0YEX6),inactive: 0.029
5,LYN isoform 2 (UniProt P07948),inactive: -0.432
6,MAP3K3 isoform 2 (UniProt Q99759),inactive: -0.283
7,"MACF1, A0A0A6YYJ5",inactive: 0.035
8,MAP3K1 (UniProt Q13233),inactive: 0.038
9,MAP3K6 (UniProt O95382),inactive: -0.12
10,LTO1 (UniProt Q8WV07),inactive: -0.275
11,LTBP1 isoform 4 (UniProt Q14766),inactive: 0.111

# Compound: CC1=C(C2=C(C=C1)C(=O)C3=CC=CC=C3N2CCCN)C
# Assay: as above
# Outline: as §1
row,Target,log2 fold change
1,MAST3 (UniProt O60307),inactive: -0.1
2,MAPK15 (UniProt Q8TD08),inactive: -0.208
3,MAGEA4 (UniProt P43358),inactive: 0.004
4,MAGI1 (UniProt H7C4S7),inactive: 0.05
5,MAPKAP1 (UniProt Q9BPZ7),inactive: 0.061
6,MAGEA2 (UniProt P43356),inactive: -0.006
7,LYRM1 (UniProt O43325),inactive: 0.037
8,MAOA (UniProt P21397),inactive: -1.19
9,LYN isoform 2 (UniProt P07948),inactive: -0.226
10,MARCHF7 (UniProt Q9H992),inactive: -0.022
11,MAP3K3 isoform 2 (UniProt Q99759),inactive: 0.119
12,"MACF1, A0A0A6YYJ5",inactive: -0.016
13,LY6D (UniProt Q14210),inactive: 0.628
14,MAP3K8 (UniProt P41279),inactive: -0.072
15,MARVELD1 (UniProt Q9BSK0),inactive: -0.317
16,LTO1 (UniProt Q8WV07),inactive: 0.001
17,MAGEF1 (UniProt Q9HAY2),inactive: -0.299
18,LTBP1 isoform 4 (UniProt Q14766),inactive: -0.154
19,MAP4K3 (UniProt Q8IVH8),inactive: -0.005
20,MAP3K2 (UniProt Q9Y2U5),inactive: -0.159
